We go through 32 targets from the supplement of paper PMC10849652.

Chains of the proteins cited; added tags and fusions are not shown. Lines headed by an entry give the natural chain unless they say otherwise; changes in a name come on top.
UniProt Q6UXV4: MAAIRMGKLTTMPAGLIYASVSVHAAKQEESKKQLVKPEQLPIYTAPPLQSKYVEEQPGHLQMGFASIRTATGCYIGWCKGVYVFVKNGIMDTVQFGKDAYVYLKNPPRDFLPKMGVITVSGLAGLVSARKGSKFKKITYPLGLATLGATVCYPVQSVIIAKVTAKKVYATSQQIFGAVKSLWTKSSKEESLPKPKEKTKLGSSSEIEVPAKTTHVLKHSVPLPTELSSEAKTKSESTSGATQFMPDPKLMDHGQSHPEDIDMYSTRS
UniProt Q6NXT1: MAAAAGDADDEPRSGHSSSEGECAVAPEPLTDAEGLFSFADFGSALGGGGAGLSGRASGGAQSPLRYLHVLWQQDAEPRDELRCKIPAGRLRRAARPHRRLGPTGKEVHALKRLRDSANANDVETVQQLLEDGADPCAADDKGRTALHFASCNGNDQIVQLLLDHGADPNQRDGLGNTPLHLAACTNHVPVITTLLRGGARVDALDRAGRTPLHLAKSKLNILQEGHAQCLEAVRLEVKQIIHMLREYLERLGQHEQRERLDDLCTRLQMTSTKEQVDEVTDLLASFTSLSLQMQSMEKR
UniProt P61966: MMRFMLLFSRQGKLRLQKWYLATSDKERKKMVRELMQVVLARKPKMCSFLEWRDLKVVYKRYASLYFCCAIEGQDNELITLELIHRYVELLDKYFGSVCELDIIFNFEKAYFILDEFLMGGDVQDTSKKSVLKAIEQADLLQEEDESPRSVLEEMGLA
UniProt Q9UJX4, whole entry, looked up: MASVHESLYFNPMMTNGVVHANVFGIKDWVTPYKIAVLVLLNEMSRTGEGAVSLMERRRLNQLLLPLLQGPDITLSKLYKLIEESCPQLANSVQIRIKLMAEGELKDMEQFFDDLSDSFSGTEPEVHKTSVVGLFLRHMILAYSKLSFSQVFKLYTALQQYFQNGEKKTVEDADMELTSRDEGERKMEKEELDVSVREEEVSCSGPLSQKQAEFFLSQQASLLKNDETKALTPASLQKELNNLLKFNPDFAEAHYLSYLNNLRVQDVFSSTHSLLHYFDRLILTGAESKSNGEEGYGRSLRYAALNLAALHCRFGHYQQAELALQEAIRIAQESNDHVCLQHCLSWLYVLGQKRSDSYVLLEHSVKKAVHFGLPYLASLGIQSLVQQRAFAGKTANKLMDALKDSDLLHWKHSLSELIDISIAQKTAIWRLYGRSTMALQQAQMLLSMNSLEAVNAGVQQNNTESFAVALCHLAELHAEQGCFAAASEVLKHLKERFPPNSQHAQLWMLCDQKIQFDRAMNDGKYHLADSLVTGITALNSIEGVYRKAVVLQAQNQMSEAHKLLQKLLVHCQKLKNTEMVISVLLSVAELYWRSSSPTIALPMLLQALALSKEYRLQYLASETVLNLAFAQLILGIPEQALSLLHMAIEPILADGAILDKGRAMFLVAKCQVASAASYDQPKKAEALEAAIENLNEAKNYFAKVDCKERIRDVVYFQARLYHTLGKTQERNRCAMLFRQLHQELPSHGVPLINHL
UniProt O43299: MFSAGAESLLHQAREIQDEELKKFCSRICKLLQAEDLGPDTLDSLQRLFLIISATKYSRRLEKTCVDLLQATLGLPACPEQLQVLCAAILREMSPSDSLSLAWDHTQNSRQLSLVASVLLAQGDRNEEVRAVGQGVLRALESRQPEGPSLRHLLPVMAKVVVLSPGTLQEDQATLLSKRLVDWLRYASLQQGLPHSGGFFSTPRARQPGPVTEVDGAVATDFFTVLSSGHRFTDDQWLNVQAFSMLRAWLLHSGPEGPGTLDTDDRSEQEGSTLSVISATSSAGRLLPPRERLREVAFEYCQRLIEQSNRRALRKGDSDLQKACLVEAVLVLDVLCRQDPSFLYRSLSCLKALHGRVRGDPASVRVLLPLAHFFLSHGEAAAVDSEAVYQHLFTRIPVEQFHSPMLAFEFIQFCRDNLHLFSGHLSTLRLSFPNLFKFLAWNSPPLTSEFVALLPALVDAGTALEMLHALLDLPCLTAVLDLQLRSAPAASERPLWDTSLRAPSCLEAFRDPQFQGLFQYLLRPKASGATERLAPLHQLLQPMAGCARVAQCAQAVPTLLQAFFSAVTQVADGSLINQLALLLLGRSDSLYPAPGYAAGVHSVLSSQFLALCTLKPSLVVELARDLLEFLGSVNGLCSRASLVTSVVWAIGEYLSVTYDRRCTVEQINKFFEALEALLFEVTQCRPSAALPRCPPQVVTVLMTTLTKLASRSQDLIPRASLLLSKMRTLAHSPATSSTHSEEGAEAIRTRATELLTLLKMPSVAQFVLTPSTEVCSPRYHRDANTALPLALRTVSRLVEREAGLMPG
UniProt Q96AK3: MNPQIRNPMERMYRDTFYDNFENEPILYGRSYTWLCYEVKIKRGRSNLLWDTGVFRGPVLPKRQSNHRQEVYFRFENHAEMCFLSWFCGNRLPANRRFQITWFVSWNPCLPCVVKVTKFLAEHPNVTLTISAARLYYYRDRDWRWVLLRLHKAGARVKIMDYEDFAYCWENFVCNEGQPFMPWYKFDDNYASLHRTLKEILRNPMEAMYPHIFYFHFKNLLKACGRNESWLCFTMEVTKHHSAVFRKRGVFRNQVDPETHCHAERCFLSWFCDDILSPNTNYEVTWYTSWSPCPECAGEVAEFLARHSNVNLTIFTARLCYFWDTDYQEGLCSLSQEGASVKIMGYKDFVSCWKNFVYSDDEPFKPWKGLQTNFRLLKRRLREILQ
UniProt P56377: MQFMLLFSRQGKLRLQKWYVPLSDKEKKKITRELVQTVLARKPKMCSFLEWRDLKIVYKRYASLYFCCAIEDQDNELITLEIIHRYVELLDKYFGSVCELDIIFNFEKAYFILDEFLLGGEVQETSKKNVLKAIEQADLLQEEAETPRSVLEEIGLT
UniProt Q9HDC9: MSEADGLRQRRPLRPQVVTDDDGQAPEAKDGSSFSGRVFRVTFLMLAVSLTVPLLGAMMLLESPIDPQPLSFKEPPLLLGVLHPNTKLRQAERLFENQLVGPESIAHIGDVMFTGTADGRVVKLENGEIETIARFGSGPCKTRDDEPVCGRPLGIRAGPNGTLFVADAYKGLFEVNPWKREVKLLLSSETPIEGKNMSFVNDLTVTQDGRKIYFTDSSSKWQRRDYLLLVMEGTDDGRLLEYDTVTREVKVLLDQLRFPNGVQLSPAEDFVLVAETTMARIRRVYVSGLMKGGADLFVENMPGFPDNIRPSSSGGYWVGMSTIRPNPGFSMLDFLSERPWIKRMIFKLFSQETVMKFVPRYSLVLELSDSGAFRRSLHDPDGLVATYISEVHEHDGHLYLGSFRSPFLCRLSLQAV
UniProt P61204: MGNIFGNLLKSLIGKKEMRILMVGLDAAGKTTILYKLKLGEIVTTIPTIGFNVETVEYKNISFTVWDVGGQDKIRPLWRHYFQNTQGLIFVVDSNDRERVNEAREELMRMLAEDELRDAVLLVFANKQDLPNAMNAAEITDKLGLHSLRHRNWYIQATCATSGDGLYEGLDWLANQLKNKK
UniProt Q8N6S4: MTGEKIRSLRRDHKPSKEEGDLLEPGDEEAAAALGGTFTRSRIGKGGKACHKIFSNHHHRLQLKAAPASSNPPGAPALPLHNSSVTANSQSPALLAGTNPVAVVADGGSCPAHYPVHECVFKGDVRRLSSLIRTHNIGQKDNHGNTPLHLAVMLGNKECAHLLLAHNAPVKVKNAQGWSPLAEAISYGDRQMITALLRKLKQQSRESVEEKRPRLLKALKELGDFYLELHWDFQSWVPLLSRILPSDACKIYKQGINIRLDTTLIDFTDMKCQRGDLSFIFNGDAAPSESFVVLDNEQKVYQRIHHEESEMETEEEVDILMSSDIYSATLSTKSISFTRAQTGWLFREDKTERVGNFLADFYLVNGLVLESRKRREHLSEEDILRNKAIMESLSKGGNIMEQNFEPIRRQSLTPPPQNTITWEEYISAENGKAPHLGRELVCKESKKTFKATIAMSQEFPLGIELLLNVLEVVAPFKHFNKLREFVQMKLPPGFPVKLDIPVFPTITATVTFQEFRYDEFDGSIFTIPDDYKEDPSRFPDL
UniProt Q9P2R3: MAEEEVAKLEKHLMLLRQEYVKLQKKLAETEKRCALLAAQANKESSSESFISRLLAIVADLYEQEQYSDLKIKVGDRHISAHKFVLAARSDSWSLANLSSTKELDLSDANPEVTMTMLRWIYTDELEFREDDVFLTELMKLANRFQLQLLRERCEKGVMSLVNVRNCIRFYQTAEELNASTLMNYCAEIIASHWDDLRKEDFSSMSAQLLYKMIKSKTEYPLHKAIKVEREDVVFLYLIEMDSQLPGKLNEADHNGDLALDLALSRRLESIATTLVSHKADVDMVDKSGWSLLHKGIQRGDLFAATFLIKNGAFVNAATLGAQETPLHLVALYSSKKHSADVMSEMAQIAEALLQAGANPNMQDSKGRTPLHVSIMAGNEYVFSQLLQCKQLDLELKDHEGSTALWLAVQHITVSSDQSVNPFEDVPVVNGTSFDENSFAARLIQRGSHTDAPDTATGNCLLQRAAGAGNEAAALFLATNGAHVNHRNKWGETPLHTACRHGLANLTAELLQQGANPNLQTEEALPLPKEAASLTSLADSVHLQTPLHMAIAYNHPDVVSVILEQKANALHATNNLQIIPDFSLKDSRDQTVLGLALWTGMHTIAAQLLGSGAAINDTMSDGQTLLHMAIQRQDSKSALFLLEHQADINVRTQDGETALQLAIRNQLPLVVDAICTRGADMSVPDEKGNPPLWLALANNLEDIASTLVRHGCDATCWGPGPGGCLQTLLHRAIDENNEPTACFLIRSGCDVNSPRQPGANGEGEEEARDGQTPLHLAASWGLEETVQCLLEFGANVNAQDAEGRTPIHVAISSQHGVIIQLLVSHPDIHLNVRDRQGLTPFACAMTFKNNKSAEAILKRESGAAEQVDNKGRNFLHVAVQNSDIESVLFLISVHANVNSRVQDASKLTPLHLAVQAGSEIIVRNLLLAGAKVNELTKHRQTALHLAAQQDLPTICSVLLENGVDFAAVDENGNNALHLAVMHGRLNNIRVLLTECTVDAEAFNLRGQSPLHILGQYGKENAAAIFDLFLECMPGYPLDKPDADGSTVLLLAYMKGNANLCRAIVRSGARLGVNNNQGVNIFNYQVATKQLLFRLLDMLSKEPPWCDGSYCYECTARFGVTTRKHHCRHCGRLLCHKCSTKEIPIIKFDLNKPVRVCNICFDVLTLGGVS
UniProt P78540: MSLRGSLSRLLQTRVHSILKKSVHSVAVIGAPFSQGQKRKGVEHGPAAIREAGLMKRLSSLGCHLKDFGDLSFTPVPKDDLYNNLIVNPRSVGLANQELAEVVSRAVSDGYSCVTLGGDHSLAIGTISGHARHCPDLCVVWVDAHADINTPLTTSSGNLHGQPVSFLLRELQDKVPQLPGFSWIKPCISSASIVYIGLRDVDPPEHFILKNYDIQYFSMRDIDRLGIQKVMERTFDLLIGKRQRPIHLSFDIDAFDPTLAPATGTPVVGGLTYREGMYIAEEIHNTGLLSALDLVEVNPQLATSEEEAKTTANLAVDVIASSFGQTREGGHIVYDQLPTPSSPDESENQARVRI
UniProt Q8IZ07: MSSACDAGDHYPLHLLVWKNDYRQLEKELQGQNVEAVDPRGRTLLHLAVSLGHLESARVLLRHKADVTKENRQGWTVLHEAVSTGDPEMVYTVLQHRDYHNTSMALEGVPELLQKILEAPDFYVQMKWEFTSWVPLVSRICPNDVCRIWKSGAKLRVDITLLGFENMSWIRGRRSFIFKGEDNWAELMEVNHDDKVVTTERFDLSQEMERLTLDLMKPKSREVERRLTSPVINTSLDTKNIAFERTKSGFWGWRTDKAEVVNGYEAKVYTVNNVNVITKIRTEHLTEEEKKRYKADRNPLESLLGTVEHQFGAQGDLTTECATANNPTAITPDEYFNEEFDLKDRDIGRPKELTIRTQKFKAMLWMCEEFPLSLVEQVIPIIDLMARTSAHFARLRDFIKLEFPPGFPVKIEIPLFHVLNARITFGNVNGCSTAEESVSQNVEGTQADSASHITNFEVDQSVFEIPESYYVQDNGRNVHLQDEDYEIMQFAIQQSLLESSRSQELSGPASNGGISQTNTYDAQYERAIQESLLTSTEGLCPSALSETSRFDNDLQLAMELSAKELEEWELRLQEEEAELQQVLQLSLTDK
UniProt Q8IV38: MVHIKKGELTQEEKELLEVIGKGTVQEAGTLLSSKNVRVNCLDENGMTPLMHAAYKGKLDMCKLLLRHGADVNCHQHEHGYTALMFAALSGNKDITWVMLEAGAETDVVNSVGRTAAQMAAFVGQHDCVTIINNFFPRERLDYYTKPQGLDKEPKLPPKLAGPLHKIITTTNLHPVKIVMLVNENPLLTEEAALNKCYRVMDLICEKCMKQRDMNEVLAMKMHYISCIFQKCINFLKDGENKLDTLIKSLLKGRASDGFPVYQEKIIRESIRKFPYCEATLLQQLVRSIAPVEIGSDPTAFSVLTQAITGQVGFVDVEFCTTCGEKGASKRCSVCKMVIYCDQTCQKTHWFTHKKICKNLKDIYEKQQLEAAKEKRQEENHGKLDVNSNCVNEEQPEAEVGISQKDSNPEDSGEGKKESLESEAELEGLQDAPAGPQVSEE

Some of the results follow.

Compound in the test: c1cn2cc(-c3ccc4cn[nH]c4c3)nc(Nc3ccc(N4CCOCC4)cc3)c2n1 [entospletinib]
The test is described as follows: log2 fold change, soluble protein after heating vs DMSO (PISA); higher = thermal stabilisation; K562 cells, 10 uM, 30 min; active = over 0.2 and 3.5 SD of the protein, either way, in both replicates (recomputed). A digest of the protocol: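 Soluble protein was defined as the supernatant after 21,000xg for 90 min. It came from K562 cells at 2×10^6 cells/mL given 10 μM compound for 30 min, heated in aliquots for 3 min across 48°C-58°C, pooled, and extracted in PBS with 0.5% NP-40 at 4°C, and was quantified by TMTpro 16plex LC-MS/MS with equalised channel sums. Thermal stability against control samples, from duplicates, is reported as log2 fold change.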
Take APOOL (UniProt Q6UXV4): the log2 fold change is inactive: 0.031.
The result for ANKRD54 (UniProt Q6NXT1) reads inactive: -0.018; that for AP1S1 (UniProt P61966), inactive: -0.003; that for ANAPC5 (UniProt Q9UJX4), inactive: 0.013.
Turning to AP5Z1 (UniProt O43299), the log2 fold change was inactive: 0.239.
Regarding ANLN (UniProt Q9NQW6), the log2 fold change was inactive: -0.053.
As for ANKRD28 (UniProt O15084), the log2 fold change is inactive: 0.018.
Take APOBEC3D (UniProt Q96AK3): the log2 fold change was inactive: 0.079.
For ANXA2 isoform 2 (UniProt P07355) the value was inactive: -0.058.
With ARID1A (UniProt O14497), the log2 fold change is inactive: -0.103.
For the target AP1S2 (UniProt P56377), the log2 fold change was inactive: -0.074.
The result for AP1AR (UniProt Q63HQ0) reads inactive: 0.04.
As to ARHGAP5 (UniProt Q13017), the log2 fold change was inactive: -0.315.
Consider ANXA7 (UniProt P20073), for which the log2 fold change was inactive: -0.034.
For APMAP (UniProt Q9HDC9) the value was inactive: -0.063; for AP3B1 (UniProt O00203), inactive: -0.006.
In the case of ARFGAP3 (UniProt Q9NP61), the log2 fold change was inactive: 0.021.
Take API5 isoform 2 (UniProt Q9BZZ5): the log2 fold change was inactive: -0.018.
API5 (UniProt Q9BZZ5): the log2 fold change was inactive: -0.038.
As to ARF3 (UniProt P61204), the log2 fold change was inactive: 0.001.
Regarding ANK1 isoform 14 (UniProt P16157), the log2 fold change was inactive: 0.278.
As for ANKRD13C (UniProt Q8N6S4), the log2 fold change was inactive: 0.01.
Turning to ANKFY1 isoform 4 (UniProt Q9P2R3), the log2 fold change was inactive: 0.084.
Take ARG2 (UniProt P78540): the log2 fold change was inactive: -0.038.
In the case of ANKRD13A (UniProt Q8IZ07), the log2 fold change is inactive: 0.063.
For ARAP1 (UniProt Q96P48) the value was inactive: 0.099.
With ANKMY2 (UniProt Q8IV38), the log2 fold change is inactive: -0.009.
Regarding ARHGDIB (UniProt P52566), the log2 fold change was inactive: 0.003.
For the target APP (UniProt P05067), the log2 fold change was inactive: -0.001.
Consider ANKRD17 (UniProt O75179), for which the log2 fold change was inactive: 0.091.
With APOBEC3C (UniProt Q9NRW3), the log2 fold change is inactive: 0.115.
With ARF5 (UniProt P84085), the log2 fold change was inactive: -0.031.
